The list shows a part of the results. The main result of the screen is listed elsewhere. These columns were measured beside it and carry no call. Most of these compounds were active or inconclusive in the main read-out, so they are no random draw. Potencies come from curve fits of mixed quality, noted in brackets.
Experiment: qHTS Assay for Lipid Storage Modulators in Drosophila S3 Cells;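 for cell number change: cells counted by Cell Tracker Red CMTPX staining in the red channel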
Conditions: BODIPY lipid droplet fluorescence, 18-24 h; for cell number change: measured here: cell count max response, cells fed with added oleic acid
Method in brief: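 Drosophila S3 cells loaded with oleic acid (400 uM, as added) and compounds at several concentrations; lipid droplets imaged by 488-nm laser-scanning cytometry, 500–530 nm intensity and object ratio to cell channel. Percent activity normalized to 20 uM Triacsin C.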

[1] = measured here: cell number channel AC50, cells fed with added oleic acid
[2] = measured here: lipid fluorescence (Fed channel) AC50, cells fed with added oleic acid

| Structure (SMILES) | cell number change | AC50 [1] | AC50 [2] |
| --- | --- | --- | --- |
| COc1cc(OC)c(C(=O)NNC(=S)NC2CCCCC2)cc1OC | 33.6% | 1.3 µM [rising, full curve] | 1.64 µM [rising, full curve] |
| COCC(=O)Nc1nc2n(n1)C(c1ccc(Cl)cc1)CC(c1ccc(OC)cc1)N2 (centres undefined) | 36.9% | 16.4 µM [rising, partial curve, poor fit] |  |
| Cc1ccc(C(=O)COC(=O)CCCC(=O)Nc2cc(C(F)(F)F)ccc2Cl)cc1C | -37.5% | 29.1 µM [falling, single point] | 0.103 µM [falling, full curve, poor fit] |
| Cc1ccc2c(c1)/C(=N/N1C(=O)c3ccccc3C1=O)C(=O)N2 | -1.13% |  | 0.259 µM [falling, full curve, poor fit] |
| CCOC(=O)N1CCN(C(=O)C(CC(C)C)NS(=O)(=O)c2ccc3c(c2)oc(=O)n3C)CC1 (centres undefined) | 94.9% |  | 29.1 µM [rising, single point] |
| CCn1cc(CNC(=O)c2ccc3nc(Cc4ccccc4F)oc3c2)cn1 | -13.8% |  | 1.46 µM [rising, partial curve] |
| CCCC1=C(C(=O)OCC)C(c2cccs2)n2ncnc2N1 (centres undefined) | -18.6% | 0.00411 µM [falling, full curve, poor fit] |  |
| CCC1CCCCN1C(=O)CSc1nnc(-c2ccc(Cl)cc2)o1 (centres undefined) | -6.35% |  |  |
| CN(C)S(=O)(=O)c1ccc(Cl)c(NC(=O)COC(=O)/C=C/c2ccco2)c1 | -61.3% |  |  |
| COc1cc(C(=O)OCCCOC(=O)c2cc(OC)c(OC)c(OC)c2)cc(OC)c1OC | 5.24% | 3.55 µM [falling, single point] | 2.24 µM [falling, partial curve] |
| O=C(Nc1ccncc1)Nc1cc(Cl)ccc1Cl |  |  | 6.51 µM [rising, single point] |
| COc1ccc(-c2noc(C(=O)NCc3ccc(F)cc3)n2)cc1OC | 36.3% | 9.2 µM [rising, single point] |  |
| Cc1ccc(NC(=O)CN2CCC(NC(=O)c3ccccc3F)CC2)cc1C | 27.4% |  | 14.6 µM [rising, partial curve] |
| Cc1csc(=Nc2ccc(S(=O)(=O)N3CCOCC3)cc2)n1Cc1ccco1 | -17.2% |  |  |
| COCCNC(=O)Cn1nc(C(F)(F)F)c(Br)c1C | -65.9% | 18.4 µM [falling, single point] |  |
| CCCNCc1cc(OC)c(OCC(=O)NCCc2ccccc2)cc1Br | 31.8% | 2.06 µM [rising, full curve, poor fit] | 16.4 µM [rising, partial curve] |
| Fc1cnc(N2CCc3ccccc32)nc1N1CCc2ccccc21 | 12.8% |  |  |
| CC(=O)NCCn1c(C)cc2ccccc21 | -68.6% | 11.6 µM [falling, partial curve] |  |
| CCN(CC)S(=O)(=O)c1ccc(NC2c3ccccc3C(=O)N2c2ccc(C)cn2)cc1 (centres undefined) | 9.16% | 0.164 µM [rising, full curve, poor fit] |  |
| COCCCNC(=O)Cn1ccc(N)nc1=O | -6.62% |  | 29.1 µM [rising, single point] |

| Structure (SMILES) | cell number change | AC50 [1] | AC50 [2] |
| --- | --- | --- | --- |
| COCC(C)n1c(SCC(=O)Nc2ccc3c(c2)OCCO3)nc2ccccc2c1=O (centres undefined) | 1.09% |  | 13 µM [falling, partial curve] |
| COc1ccc(S(=O)(=O)N2CCN(C)CC2)cc1C(=O)N1CCCCC1 | 28% | 1.3 µM [rising, full curve, poor fit] | 5.17 µM [rising, single point] |
| CCn1c2ccccc2c2nnc(SCC(=O)NCCOC)nc21 | -4.36% |  | 1.16 µM [rising, full curve, poor fit] |
| C=CCOn1c(=O)c(=O)n(OCc2ccccc2)c2ccccc21 | -3.07% |  |  |
| Cc1ccnc(NS(=O)(=O)c2ccccc2)c1 | 8.01% |  | 0.58 µM [rising, single point] |
| CC(C)(C)C(=O)Nc1ccc(N2CCCC2)cc1 | -7.03% |  | 6.51 µM [falling, single point] |
| CCOc1cc(-c2cn(S(=O)(=O)c3cccc4nsnc34)nc2N)cc(OCC)c1OCC |  | 2.91 µM [rising, partial curve] | 4.61 µM [rising, partial curve] |
| COC(=O)c1sc(NC(=O)c2ccc(Cn3cc(Cl)cn3)o2)c(C#N)c1C | -17.8% |  |  |
| CCCC1(C(=O)O)NC(c2ccccc2O)C2C(=O)N(c3cccc(Cl)c3)C(=O)C21 (centres undefined) | 19.9% |  | 29.1 µM [rising, single point] |
| Cc1ccc(NCc2nnc(SCC(=O)c3ccc4c(c3)OCCO4)o2)c(C)c1 | -40% | 3.66 µM [falling, partial curve] |  |
| C/C(=N\NC(=O)c1cc(-c2cccnc2)nc2ccccc12)c1ccccc1O | -15.8% |  | 29.1 µM [falling, single point] |
| COc1ccc(Cl)cc1NC(=O)c1[nH]c(C)c(C(C)=O)c1C | 6.67% |  | 6.51 µM [falling, single point] |
| COCC(C)N=C1NN=C(c2c[nH]c3ccccc23)CS1 (centres undefined) | 23.8% |  | 6.51 µM [falling, single point] |
| C#CCOCCOCCOCCNc1nc(N2CCN(C(=O)Cn3cc(CCCCN)nn3)CC2)nc(N2CCN(C(=O)Cn3cc(CCCN=C(N)N)nn3)CC2)n1 | 24.8% | 0.58 µM [rising, full curve, poor fit] |  |
| O=C(Nc1ccc(Cl)cc1)N1CCOC12CCCCC2 |  |  | 0.146 µM [falling, full curve, poor fit] |
| O=C(CN(c1cccc(Cl)c1)S(=O)(=O)c1ccc(Cl)cc1)NCc1ccccn1 | -15.2% |  |  |
| CC(C)CN(CCC(=O)O)CC(C)C | -34.8% | 0.0291 µM [falling, full curve] | 0.0517 µM [falling, full curve] |
| O=C(C1CCCN(S(=O)(=O)c2cccc3nsnc23)C1)N1CCc2ccccc2C1 (centres undefined) | -0.778% |  |  |
| CC(NC(=O)CN(C)CC(=O)Nc1cccc(F)c1)c1ccccc1 (centres undefined) | -8.77% |  | 29.1 µM [falling, single point] |

Among those listed so far, these have an NH in an aromatic ring:

| Structure (SMILES) | cell number change | AC50 [1] | AC50 [2] |
| --- | --- | --- | --- |
| COc1ccc(Cl)cc1NC(=O)c1[nH]c(C)c(C(C)=O)c1C | 6.67% |  | 6.51 µM [falling, single point] |
| COCC(C)N=C1NN=C(c2c[nH]c3ccccc23)CS1 (centres undefined) | 23.8% |  | 6.51 µM [falling, single point] |

Reference: PubChem BioAssay AID2685 (National Center for Advancing Translational Sciences (NCATS), 2010)
